Experimental data taken from PubChem BioAssay AID493014 (National Center for Advancing Translational Sciences (NCATS), 2011).
Out of some 340,000 compounds screened, about 170 (0.05%) were called active. The inconclusive results got no clear call from the source; some entries with a clear call stand among them for comparison. Calls follow the shape of the dose curve; as a rule, active = well fitted inhibition curve with a large enough effect in the signal ratio, with a control signal flat (not every such curve was filed as active); inconclusive = small, poorly fitted or top-dose-only effect, or effect the other way, or a change in a side signal; inactive = flat fitted curve, though single readings scatter; the % refers to the signal ratio. Potencies beside an inconclusive call are fits to weak or partial responses and may not hold up.

Assay: qHTS Assay to Find Inhibitors of Chronic Active B-Cell Receptor Signaling;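 as to activity change, negative = inhibition: plate controls were basal doxycycline-induced cells for no effect and cells given 10 µM MG132 for full effect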
Conditions: ABC-DLBCL IkBa-CBG/CBR reporter, luminescence ratio (green luciferase fused to IkBa over red control in TMD8 lymphoma cells), 4 h; activity change, negative = inhibition: at 46.1 µM (top of the series)
How it was run: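 Doxycycline induced both beetle luciferases in TMD8 lymphoma cells; IKK-driven degradation limits the IkappaBalpha-fused green signal, while red luminescence normalises for cell number and nonspecific effects. Compounds tested up to 46 uM, 4 hrs.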
Potency is read from the fitted curve at half-maximal effect.

Structure (SMILES)	activity change, negative = inhibition	Potency
Cc1ccc(N2C(=O)/C(=C/c3ccc(CN(CCC#N)S(C)(=O)=O)o3)C(=O)NC2=S)cc1C	inactive	–
O=C(CSc1nnc(-c2ccco2)n1Cc1ccccc1)NC(=O)NCc1ccccc1	inconclusive: -0.578%	–
COc1ccccc1-n1c(/C=C/c2ccccn2)nc2ccccc2c1=O	–	inconclusive: 28.2 µM [falling, partial curve, poor fit]
CCN1CCN(C(=O)Cc2coc3ccc4ccccc4c23)CC1	inconclusive: -4.75%	–
Cn1c(O)c(C=NCCOc2ccc(Cl)cc2)c(=O)n(C)c1=O	inconclusive: 0.0923%	–
CCn1c(O)c(C=Nc2ccc(S(N)(=O)=O)cc2)c(=O)[nH]c1=S	inactive	–
Cc1cccc(NC(=O)c2nc(S(=O)(=O)Cc3ccccc3)ncc2Cl)c1	inconclusive: 13.9%	–
Cc1ccc(-n2c(O)c(C=NCc3ccco3)c(=O)[nH]c2=S)cc1C	inconclusive: 10.9%	–
COc1ccc(Cn2c(O)c(/C=N/NC(=O)c3ccccc3)c(=O)[nH]c2=O)cc1	–	inconclusive: 20.6 µM [falling, partial curve]
CCCCn1c(=O)c(C(=O)Nc2ccsc2C(=O)OC)c(O)c2ccccc21	–	inconclusive: 23.1 µM [falling, partial curve]
Cc1cc(=O)oc2c(C)c(OCC(=O)N3CCC(C(=O)O)(c4ccccc4)CC3)ccc12	inactive	–
c1ccc2c(N3CCNCC3)nsc2c1	–	inconclusive: 10 µM [rising, partial curve]
CC(=NCCc1ccccc1)c1c(O)n(C)c(=O)n(C)c1=O	inconclusive: 12%	–
CSc1ccc(/C=C/c2nc3ccccc3c(=O)n2-c2cccc(Cl)c2C)cc1	inconclusive: 14%	–
COCCNC(=O)N1[C@H]2CC[C@@H]1C(C(=O)OC)=C(c1ccc(OC)c(OC)c1)C2	inactive	–
O=S(=O)(c1ccc(O)cc1)c1ccc(O)cc1	inconclusive: 2.93%	–
Oc1ccccc1-[n+]1c(-c2ccccc2)cc(-c2ccccc2)cc1-c1ccccc1	–	inconclusive: 23.1 µM [falling, single point]
CC/C(=N\NC(=O)c1ccccc1O)c1c(O)n(C2CCCCC2)c(=O)[nH]c1=O	–	inconclusive: 35.5 µM [rising, partial curve]
C[C@]12CC[C@H]3[C@@H](CCC4=CC(=O)CC[C@@]43O)[C@@H]1CCC2=O	inconclusive: -0.36%	–
COC(=O)C1=C(c2ccc(OCc3ccccc3)cc2)C[C@@H]2CC[C@H]1N2C(=O)NCc1cccc(OC)c1	–	inconclusive: 23.1 µM [falling, partial curve, poor fit]
COCc1nnc(NC(=O)c2cc3ccccc3o2)s1	–	inconclusive: 10 µM [falling, partial curve]
CCOC(=O)C(O)(c1ccc(NC(=O)c2ccco2)c(OC)c1)C(F)(F)F (configuration not stated)	–	inconclusive: 20.6 µM [falling, single point]
Cc1nn(Cc2ccccc2Cl)c(Cl)c1C(=O)O	inactive	–
CCCCC(=O)N/N=C/c1c(O)n(CC)c(=S)n(CC)c1=O	–	inconclusive: 29.1 µM [falling, single point]
CCn1nc(/C=C/c2ccccc2)nc2c(=O)n(C)c(=O)nc1-2	–	inconclusive: 35.5 µM [rising, single point]
Cc1c(NC(=O)c2ccccc2N)cccc1C(=O)O	–	inconclusive: 20 µM [falling, single point]

Another view of 5 compounds above.
Structure (SMILES),"activity change, negative = inhibition",Potency
c1ccc2c(N3CCNCC3)nsc2c1,–,"inconclusive: 10 µM [rising, partial curve]"
CC(=NCCc1ccccc1)c1c(O)n(C)c(=O)n(C)c1=O,inconclusive: 12%,–
CSc1ccc(/C=C/c2nc3ccccc3c(=O)n2-c2cccc(Cl)c2C)cc1,inconclusive: 14%,–
COCCNC(=O)N1[C@H]2CC[C@@H]1C(C(=O)OC)=C(c1ccc(OC)c(OC)c1)C2,inactive,–
O=S(=O)(c1ccc(O)cc1)c1ccc(O)cc1,inconclusive: 2.93%,–

(cont.)

Structure (SMILES)	activity change, negative = inhibition	Potency
COc1ccc(CCN(C)Cc2ccncc2)cc1OC	inactive	–
COC(=O)c1nc(-c2ccc3c(n2)C(=O)C(N)=C(OC)C3=O)c(N)c(-c2ccc(OC)c(OC)c2O)c1C	inconclusive: 1.46%	–
O=C1NC(=O)C(CCc2ccncc2)(CCc2ccncc2)C(=O)N1C1CCCCC1	–	inconclusive: 5.01 µM [rising, partial curve]
COc1ccc2c(c1)c(C(=O)O)c(C)n2CC(C)C	inconclusive: 13.7%	–
COc1ccccc1/C=C1\SC(=S)N(CCC(=O)NCCc2ccc(O)cc2)C1=O	–	inconclusive: 12.6 µM [falling, partial curve]
CN(C)C(=Nc1ccccc1)P(=S)(N(C)C)N(C)C	inactive	–
O=C1NC(=O)N(c2ccccc2)C(=O)/C1=C/c1ccc(Sc2ccccc2)o1	inconclusive: 0.966%	–
CCCCCn1c(=O)c(C(=O)Nc2cnccn2)c(O)c2ccccc21	inactive	–
CC(C)c1ccc(-n2c(O)c(C=NCCN3CCNCC3)c(=O)[nH]c2=S)cc1	inconclusive: 6.86%	–
COc1ccc(/C=C2/C(=O)NC(=O)N(c3ccc(C)c(C)c3)C2=O)cc1CN1C(=O)c2ccccc2C1=O	–	inconclusive: 20.6 µM [falling, single point]
CCOc1cc2c(cc1OCC)-n1cccc1C(c1ccc(F)c(OC)c1)NC2 (configuration not stated)	–	inconclusive: 10 µM [falling, partial curve, poor fit]
COc1ccc(Cn2c(O)c(/C=N/NC(=O)c3ccccc3O)c(=O)[nH]c2=O)cc1	–	inconclusive: 4.61 µM [falling, partial curve]
COc1ccc2c(c1)C13CCCC[C@@H]1C(C2)N(C)CC3 (some centres not stated)	inconclusive: -2.38%	–
Cn1c(O)c(C2=NNC(c3ccc(Cl)cc3)C2)c(=O)n(C)c1=O (configuration not stated)	–	inconclusive: 35.5 µM [rising, single point]
CCCN(CC(=O)Nc1ccccc1C)C(=O)CCl	–	inconclusive: 25.1 µM [falling, single point]
CN1C(=O)C(=Cc2ccccc2Oc2ccc(Cl)cc2)C(=O)N(C)C1=O	inconclusive: 11.1%	–
O=C(Oc1ccc(-c2cnc3ccccc3n2)cc1)c1ccco1	–	inconclusive: 4.47 µM [rising, partial curve, poor fit]
NCCc1ccc(O)cc1	inactive	–
CCSP1(=S)N=C(N2CCOCC2)C(C#N)=C2CCCN21 (configuration not stated)	inactive	–
CC(C1CC2CCC1C2)n1c(-c2cccs2)n[nH]c1=S (configuration not stated)	inconclusive: 10.1%	–
CCN(CC)S(=O)(=O)N1CCC(C(=O)N2CCC3(CC2)OCCO3)CC1	inactive	–
C#CCN1CCN(c2cccc(C(F)(F)F)c2)CC1	inconclusive: 4.1%	–
Cc1ccccc1-n1c(-c2ccco2)nc2ccccc2c1=O	inactive	–
Cc1ccc(NC(=O)Cn2c(=O)oc3cc(S(=O)(=O)N4CCCCCC4)ccc32)cc1Cl	inconclusive: 10.3%	–
COc1ccccc1N1C(=O)NC(=O)C2(Cc3cc(C)ccc3N(C)C2)C1=O (configuration not stated)	inconclusive: -0.486%	–
O=C(Nc1ccc(Cl)cc1)Nc1nccs1	–	inconclusive: 12.6 µM [falling, single point]

Structure (SMILES)	activity change, negative = inhibition	Potency
Cc1cc(C)c(Cn2c(C(=O)O)c(C=O)c3ccccc32)c(C)c1	inconclusive: 2.63%	–
N[C@@]1(C(=O)O)CC[C@@H](C(=O)O)C1	inconclusive: -6.78%	–
Cc1ncc(CN2CCCC(C(=O)c3cccc(Cl)c3)C2)s1 (configuration not stated)	inconclusive: 12.9%	–
CCCOC(=O)C1C2c3ccccc3C(c3ccccc32)C1C(=O)O (configuration not stated)	inconclusive: 6.01%	–
CCOc1cc(/C=N/NC(=O)c2cccs2)ccc1OC(=O)N1CCOCC1	inconclusive: -3.39%	–
COCC(C)OC(=O)c1c(N)n(Cc2ccco2)c2nc3ccccc3nc12 (configuration not stated)	inconclusive: 19.3%	–
Cc1ccc(CNCCc2ccccc2F)cc1	inactive	–
CCCNC(=O)c1c(N)n(Cc2ccc3c(c2)OCO3)c2nc3ccccc3nc12	inconclusive: 17.9%	–
COc1nc2ccccc2c(=O)n1-c1ccc(Cl)cc1	inconclusive: 2.09%	–
COc1ccccc1NC(=O)COC(=O)c1cn(C)c2ccccc12	–	inconclusive: 20.6 µM [falling, partial curve]
O=C(CCCn1c(=O)oc2ccccc21)N1CCN(c2ccc(F)cc2)CC1	inconclusive: -4.64%	–
Cc1nn(Cc2ccccc2)c(Cl)c1C(=O)OCC(=O)Nc1cccc2ccccc12	–	inconclusive: 29.1 µM [falling, single point]
Cc1ccccc1-n1c(/C=C/c2ccccn2)nc2ccccc2c1=O	–	inconclusive: 35.5 µM [falling, single point]
COC(=O)C1=C(c2ccc(F)cc2F)C[C@@H]2CC[C@H]1N2C(=O)NCCOc1ccccc1Cl	inconclusive: 8.42%	–
Nc1c(C(=O)NC2CCCC2)c2nc3ccccc3nc2n1CC1CCCO1 (configuration not stated)	inconclusive: 14.1%	–
COc1ccc(N=Nc2c(O)[nH]c(=S)[nH]c2=O)cc1	–	inconclusive: 15.8 µM [falling, partial curve]
CCCCn1c(O)c(/C=C/C=C/C=Nc2ccccc2)sc1=S	–	inconclusive: 11.2 µM [falling, partial curve, poor fit]
COc1ccc(/C(N)=N/OC(=O)c2c(-c3ccccc3Cl)noc2C)cc1OC	inconclusive: -0.909%	–
O=C(N/N=C/c1c(O)n(CCc2ccc(F)cc2)c(=O)[nH]c1=O)c1ccccc1	–	inconclusive: 1.58 µM [falling, full curve, poor fit]
CC1CCCC(C)N1c1nnc(NC(=O)Cn2c(=O)oc3ccccc32)s1 (configuration not stated)	inconclusive: 9.62%	–
CC1(C)Cc2c(sc3c2C(=O)NC(c2cccnc2)N3)CO1 (configuration not stated)	inconclusive: 21%	–
CN(C)c1ccc(P(=S)(N(C)C)N(C)C)cc1	inactive	–
Cc1csc(NC(=O)C2CCCN2C(=O)Oc2ccccc2)n1 (configuration not stated)	inconclusive: -0.481%	–
O=C(c1ccc(N2CC3CC(C2)c2cccc(=O)n2C3)c([N+](=O)[O-])c1)N1CCCC1 (configuration not stated)	inactive	–
CCC(C)c1ccc(C(C)NC(=S)NC2CCCCC2)cc1 (configuration not stated)	inconclusive: 1.92%	–

3 entries already listed, arranged by count of non-hydrogen atoms, ascending:
Structure (SMILES)	activity change, negative = inhibition	Potency
Nc1c(C(=O)NC2CCCC2)c2nc3ccccc3nc2n1CC1CCCO1 (configuration not stated)	inconclusive: 14.1%	–
COCCNC(=O)N1[C@H]2CC[C@@H]1C(C(=O)OC)=C(c1ccc(OC)c(OC)c1)C2	inactive	–
Cc1cc(=O)oc2c(C)c(OCC(=O)N3CCC(C(=O)O)(c4ccccc4)CC3)ccc12	inactive	–
